In publication PMC6377148 one finds binding data, which are given here for 3 molecules.

Sequences of proteins named here, by UniProt entry; tags and fusion partners are left off.
UniProt P49336: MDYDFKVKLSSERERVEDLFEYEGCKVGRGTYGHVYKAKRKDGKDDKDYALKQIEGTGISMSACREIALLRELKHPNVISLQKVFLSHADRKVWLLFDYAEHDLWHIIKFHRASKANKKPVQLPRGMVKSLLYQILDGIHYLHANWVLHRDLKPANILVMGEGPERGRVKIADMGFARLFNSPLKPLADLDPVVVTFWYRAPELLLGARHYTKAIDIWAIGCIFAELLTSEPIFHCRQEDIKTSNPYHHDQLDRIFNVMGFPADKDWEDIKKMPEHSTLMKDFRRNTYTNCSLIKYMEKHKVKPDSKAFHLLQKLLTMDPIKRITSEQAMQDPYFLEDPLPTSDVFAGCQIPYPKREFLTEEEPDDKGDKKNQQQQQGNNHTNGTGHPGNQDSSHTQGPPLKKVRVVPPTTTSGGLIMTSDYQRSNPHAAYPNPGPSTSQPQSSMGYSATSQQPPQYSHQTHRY
UniProt Q9BWU1: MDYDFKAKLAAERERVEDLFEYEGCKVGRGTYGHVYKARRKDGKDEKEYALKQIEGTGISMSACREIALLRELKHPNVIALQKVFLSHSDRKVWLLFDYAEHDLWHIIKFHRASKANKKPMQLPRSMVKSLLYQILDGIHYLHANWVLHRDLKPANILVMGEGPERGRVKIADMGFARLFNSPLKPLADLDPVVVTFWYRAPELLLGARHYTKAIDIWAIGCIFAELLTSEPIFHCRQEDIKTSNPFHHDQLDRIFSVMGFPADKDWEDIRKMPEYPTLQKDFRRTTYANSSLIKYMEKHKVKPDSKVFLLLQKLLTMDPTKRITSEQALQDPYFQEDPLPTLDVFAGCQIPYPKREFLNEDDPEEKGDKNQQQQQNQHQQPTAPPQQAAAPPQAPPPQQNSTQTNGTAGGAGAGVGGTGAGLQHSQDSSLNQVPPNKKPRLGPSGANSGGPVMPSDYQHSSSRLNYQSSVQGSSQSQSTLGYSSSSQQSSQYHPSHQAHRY

These are yes or no findings as the source states them, for the method shown. In cells and extracts the contact can be indirect. Here binding means that the protein was enriched with, or labelled near, the bait; the list need not be complete. Tags and fused reporters may be left off the sequences shown.

To fix the notation:
T1: MTBP-Flag-GFP purified for mass spectrometry (human) (UniProt Q96DY7)
T1 sequence: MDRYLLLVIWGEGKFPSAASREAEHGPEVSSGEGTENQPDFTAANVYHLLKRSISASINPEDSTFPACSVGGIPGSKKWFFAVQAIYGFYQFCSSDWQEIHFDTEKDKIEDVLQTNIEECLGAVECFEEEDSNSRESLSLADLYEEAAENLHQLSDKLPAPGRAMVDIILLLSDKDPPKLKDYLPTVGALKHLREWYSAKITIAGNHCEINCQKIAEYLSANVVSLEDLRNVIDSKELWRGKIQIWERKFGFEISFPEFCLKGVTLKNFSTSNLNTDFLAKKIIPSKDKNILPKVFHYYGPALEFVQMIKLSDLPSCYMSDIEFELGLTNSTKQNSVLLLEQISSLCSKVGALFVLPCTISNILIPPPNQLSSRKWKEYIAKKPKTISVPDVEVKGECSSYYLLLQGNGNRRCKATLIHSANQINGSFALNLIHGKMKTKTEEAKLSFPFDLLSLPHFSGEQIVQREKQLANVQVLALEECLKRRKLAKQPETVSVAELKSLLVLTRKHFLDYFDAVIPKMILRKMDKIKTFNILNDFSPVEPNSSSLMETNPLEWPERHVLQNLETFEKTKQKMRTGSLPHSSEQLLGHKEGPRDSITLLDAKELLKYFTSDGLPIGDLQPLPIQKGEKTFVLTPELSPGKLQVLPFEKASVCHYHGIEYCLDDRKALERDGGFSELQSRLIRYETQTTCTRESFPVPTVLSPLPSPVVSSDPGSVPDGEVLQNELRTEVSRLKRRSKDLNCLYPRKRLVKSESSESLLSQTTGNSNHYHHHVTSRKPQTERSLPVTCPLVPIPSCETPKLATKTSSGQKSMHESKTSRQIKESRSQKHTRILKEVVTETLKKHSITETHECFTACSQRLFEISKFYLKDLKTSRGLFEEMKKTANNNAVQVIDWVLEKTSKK

B1: cyclin C, endogenous (protein, UniProt P24863 1-283)
chain: MAGNFWQSSHYLQWILDKQDLLKERQKDLKFLSEEEYWKLQIFFTNVIQALGEHLKLRQQVIATATVYFKRFYARYSLKSIDPVLMAPTCVFLASKVEEFGVVSNTRLIAAATSVLKTRFSYAFPKEFPYRMNHILECEFYLLELMDCCLIVYHPYRPLLQYVQDMGQEDMLLPLAWRIVNDTYRTDLCLLYPPFMIALACLHVACVVQQKDARQWFAELSVDMEKILEIIRVILKLYEQWKNFDERKEMATILSKMPKPKPPPNSEGEQGPNGSQNSSYSQS

The target of the assay is T1, MTBP-Flag-GFP purified for mass spectrometry (human). The experiment in a line: affinity purification with mass spectrometry; purification of MTBP-Flag-GFP and mass spectrometry; cells and conditions not told.
Turning to “Cdk8 (cyclin-dependent kinase 8), endogenous (from UniProt P49336 1-464) (enzyme)”, the binding entry was “binds”.

Regarding “Cdk19 (cyclin-dependent kinase 19), endogenous (from UniProt Q9BWU1 1-502) (enzyme)”, the binding result is given as “binds”.

As for B1, the binding entry is “binds”.
